Inconclusive means that the source gave no clear call. Such entries were picked first, then a sample of the others. Where the call is inconclusive, the potency comes from a doubtful curve fit. Calls of active or inactive are those of the source. Calls follow the shape of the dose curve; as a rule, active = well fitted curve in the direction sought with a large enough effect; inconclusive = small, poorly fitted or top-dose-only effect, or another doubt; inactive = no such curve, though single readings can be large; an effect the other way counts as inactive or inconclusive.
What was measured:
[1] = Quantitative High-Throughput drug screen in 47 multiple myeloma cell lines against the NCATS MIPE library collection: KHM11_PLB cell viability assay (AID 1918962); details: KHM11 myeloma cell viability, CellTiter-Glo ATP luminescence, 48 h; viability, % of DMSO control: at 45.8 µM (top of the series) unless noted; also: nearly all actives have a fitted effect of over 35% in size
Method in brief: (§1)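 CellTiter-Glo luminescence (ATP) after 48 h compound exposure, 37C/5% CO2; 500 cells/well; MIPE 4.0 approved/investigational drugs pinned in; DMSO = 100%, media only = 0% viability.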

[2] = Quantitative High-Throughput drug screen in 47 multiple myeloma cell lines against the NCATS MIPE library collection: JIM3_ECACC cell viability assay (AID 1918963; also: nearly all actives have a fitted effect of over 35% in size)
Method in brief: as §1

[3] = Quantitative High-Throughput drug screen in 47 multiple myeloma cell lines against the NCATS MIPE library collection: JIM1_ECACC cell viability assay (AID 1918964); details: JIM1 myeloma viability, CellTiter-Glo ATP luminescence, 48 h; viability (% of DMSO): at 45.8 µM (top of the series)
Method in brief: (§2)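 CellTiter-Glo ATP luminescence gave viability after 48 h compound treatment at 37C of 500 multiple myeloma cells per well. Normalisation used DMSO-only wells as 100% and media-only wells as 0% viability; primary qHTS of approved and investigational drugs.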

[4] = Quantitative High-Throughput drug screen in 47 multiple myeloma cell lines against the NCATS MIPE library collection: INA6_PLB cell viability assay (AID 1918965; also: nearly all actives have a fitted effect of over 55% in size); details: INA6 myeloma viability, CellTiter-Glo ATP luminescence, 48 h; viability (% of control): at 45.8 µM (top of the series) unless noted
Method in brief: (§3)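 Myeloma cells (500 per well) were exposed to MIPE 4.0 compounds by pin transfer and incubated 48 hours at 37C, 5% CO2. Viability was read as ATP by CellTiter-Glo luminescence, normalised to DMSO (100%) and media-only (0%) wells.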

[5] = Quantitative High-Throughput drug screen in 47 multiple myeloma cell lines against the NCATS MIPE library collection: Karpas25_ECACC cell viability assay (AID 1918968; also: nearly all actives have a fitted effect of over 35% in size)
Method in brief: as §2

[6] = Quantitative High-Throughput drug screen in 47 multiple myeloma cell lines against the NCATS MIPE library collection: KMS27_JCRB cell viability assay (AID 1918970); details: KMS27 myeloma cells, CellTiter-Glo ATP viability, 48 h; viability (% of DMSO): at 45.8 µM (top of the series); also: nearly all actives have a fitted effect of over 30% in size
Method in brief: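 Luminescent ATP read-out (CellTiter-Glo, 5 min at room temperature) after 48 h compound exposure of 500 KMS27_JCRB cells per well; DMSO wells define full viability and media-only wells zero.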

[7] = Quantitative High-Throughput drug screen in 47 multiple myeloma cell lines against the NCATS MIPE library collection: JJN3_DSMZ cell viability assay (AID 1918966; also: nearly all actives have a fitted effect of over 50% in size)
Method in brief: as §2

[8] = Quantitative High-Throughput drug screen in 47 multiple myeloma cell lines against the NCATS MIPE library collection: KMS12BM_JCRB cell viability assay (AID 1918971); details: KMS12BM myeloma viability, CellTiter-Glo ATP, 48 h; viability, % of DMSO: at 45.8 µM (top of the series); also: nearly all actives have a fitted effect of over 35% in size
Method in brief: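 Inhibition of cell viability is measured here. Each line was plated at 500 cells per well, treated with MIPE 4.0 drugs, kept 48 hours at 37C, then assayed for ATP content by CellTiter-Glo luminescence.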

[9] = Quantitative High-Throughput drug screen in 47 multiple myeloma cell lines against the NCATS MIPE library collection: KMS12PE_JCRB cell viability assay (AID 1918972); details: KMS12PE myeloma viability, CellTiter-Glo ATP, 48 h; viability: at 45.8 µM (top of the series); also: nearly all actives have a fitted effect of over 30% in size
Method in brief: as §3

[10] = Quantitative High-Throughput drug screen in 47 multiple myeloma cell lines against the NCATS MIPE library collection: H1112_PLB cell viability assay (AID 1918967; also: nearly all actives have a fitted effect of over 30% in size)
Method in brief: as §2
Potency is read from the fitted curve at half-maximal effect.

C[C@]12C=CC(=O)C=C1CC[C@@H]1[C@@H]2C(=O)C[C@@]2(C)[C@H]1CC[C@]2(O)C(=O)CO
inconclusive: viability, % of DMSO control [1] 125% [cytotoxic] [at 23.2 µM] | Potency [3] 0.0182 µM [cytotoxic, full curve, poor fit] | Potency [5] 0.575 µM [cytotoxic, partial curve, poor fit] | Potency [6] 0.0005 µM [cytotoxic, full curve, poor fit]
inactive: Potency [2] | Potency [4]

Oc1ccc([C@@H]2Oc3ccc(O)cc3[C@@H]3CCC[C@@H]32)cc1
inconclusive: Potency [1] 2.09 µM [cytotoxic, full curve, poor fit] | Potency [2] 8.33 µM [cytotoxic, full curve] | Potency [3] 0.264 µM [cytotoxic, full curve, poor fit] | Potency [4] 13.2 µM [cytotoxic, partial curve, poor fit] | Potency [7] 33.2 µM [cytotoxic, partial curve, poor fit]
active: Potency [8] 14.8 µM

CCCc1nn(C)c2c(=O)[nH]c(-c3cc(S(=O)(=O)N4CCN(C)CC4)ccc3OCC)nc12
active: Potency [8] 11.8 µM
inconclusive: viability, % of DMSO control [1] 31.3% [cytotoxic] | Potency [2] 14.8 µM [cytotoxic, partial curve] | Potency [3] 0.0418 µM [cytotoxic, full curve, poor fit] | Potency [4] 11.8 µM [cytotoxic, full curve, poor fit] | Potency [5] 33.2 µM [cytotoxic, single point] | Potency [6] 0.001 µM [cytotoxic]
inactive: Potency [9]

Nc1ccc(S(N)(=O)=O)cc1
inactive: Potency [2] | Potency [4] | Potency [7] | Potency [8]
inconclusive: Potency [1] 0.372 µM [cytotoxic, full curve, poor fit] | Potency [3] 0.0418 µM [rising, full curve, poor fit]

CC(C)[N+]1(C)[C@@H]2CC[C@H]1CC(OC(=O)C(CO)c1ccccc1)C2 (stereo partly drawn)
active: Potency [9] 16.6 µM
inactive: Potency [2] | Potency [7]
inconclusive: Potency [1] 0.0033 µM [rising, full curve, poor fit] | Potency [3] 20.9 µM [cytotoxic, partial curve, poor fit] | Potency [4] 16.6 µM [cytotoxic, partial curve] | Potency [5] 29.6 µM [cytotoxic, single point] | Potency [8] 0.332 µM [rising, partial curve]

CC(C)c1onc(-c2c(Cl)cccc2Cl)c1COc1ccc(C=Cc2cccc(C(=O)O)c2)c(Cl)c1
inactive: Potency [3] | Potency [4]
inconclusive: Potency [1] 0.001 µM | Potency [2] 7.43 µM [cytotoxic, partial curve, poor fit] | Potency [7] 16.6 µM [cytotoxic, partial curve, poor fit] | Potency [5] 10.5 µM [cytotoxic, partial curve, poor fit] | Potency [8] 14.8 µM [cytotoxic, partial curve, poor fit]

CC(Cc1ccc(O)c(O)c1)(NN)C(=O)O (stereo not drawn)
inactive: Potency [1] | Potency [3] | Potency [4]
inconclusive: Potency [2] 7.43 µM [cytotoxic, partial curve, poor fit] | Potency [5] 16.6 µM [cytotoxic, partial curve, poor fit]

CCCCC[C@H](O)C=C[C@H]1[C@H](O)CC(=O)[C@H]1CCCCCCC(=O)O
inconclusive: Potency [1] 2.64 µM [cytotoxic, full curve, poor fit] | Potency [2] 26.4 µM [cytotoxic, single point] | Potency [4] 16.6 µM [cytotoxic, partial curve, poor fit] | Potency [8] 5.26 µM [cytotoxic, partial curve, poor fit]
inactive: Potency [3] | Potency [9]

NC(N)=NC(=O)c1nc(Cl)c(N)nc1N
inconclusive: Potency [1] 0.0059 µM [rising, full curve] | Potency [3] 0.526 µM [cytotoxic, full curve, poor fit] | Potency [7] 0.0662 µM [rising, full curve, poor fit] | Potency [9] 23.5 µM [cytotoxic, single point]
inactive: Potency [2] | Potency [8]

2 consecutive records out of the list so far, quoted:
CC(C)[N+]1(C)[C@@H]2CC[C@H]1CC(OC(=O)C(CO)c1ccccc1)C2 (stereo partly drawn)
active: Potency [9] 16.6 µM
inactive: Potency [2] | Potency [7]
inconclusive: Potency [1] 0.0033 µM [rising, full curve, poor fit] | Potency [3] 20.9 µM [cytotoxic, partial curve, poor fit] | Potency [4] 16.6 µM [cytotoxic, partial curve] | Potency [5] 29.6 µM [cytotoxic, single point] | Potency [8] 0.332 µM [rising, partial curve]

CC(C)c1onc(-c2c(Cl)cccc2Cl)c1COc1ccc(C=Cc2cccc(C(=O)O)c2)c(Cl)c1
inactive: Potency [3] | Potency [4]
inconclusive: Potency [1] 0.001 µM | Potency [2] 7.43 µM [cytotoxic, partial curve, poor fit] | Potency [7] 16.6 µM [cytotoxic, partial curve, poor fit] | Potency [5] 10.5 µM [cytotoxic, partial curve, poor fit] | Potency [8] 14.8 µM [cytotoxic, partial curve, poor fit]

Remaining list, next part.

C[C@H]1COC2=C1C(=O)C(=O)c1c2ccc2c1CCCC2(C)C
inconclusive: Potency [1] 29.6 µM [cytotoxic, single point] | Potency [3] 0.0033 µM [rising, full curve, poor fit] | Potency [10] 16.6 µM [cytotoxic, partial curve] | Potency [9] 9.35 µM [cytotoxic, partial curve]
active: Potency [2] 23.5 µM | Potency [7] 18.7 µM

CC1=NN(c2ccccc2)C(=O)C1
inactive: Potency [2] | Potency [3]
inconclusive: Potency [1] 4.69 µM [rising, full curve, poor fit] | Potency [7] 0.0209 µM [rising, full curve, poor fit] | Potency [5] 0.0019 µM [rising, full curve, poor fit] | Potency [8] 0.0021 µM [rising, full curve]

NC(N)=Nc1nc(CSCCC(N)=NS(N)(=O)=O)cs1
active: Potency [10] 16.6 µM
inconclusive: viability, % of DMSO control [1] 59.4% [cytotoxic] | Potency [2] 33.2 µM [cytotoxic, single point] | Potency [3] 0.0037 µM [rising, full curve, poor fit] | Potency [7] 0.001 µM | Potency [6] 13.2 µM [cytotoxic, partial curve, poor fit]
inactive: Potency [8] | Potency [9]

N#CC1(c2cccc(C(=O)Nc3cc(Oc4ccc5nc(NC(=O)C6CC6)sc5n4)ccc3F)c2Cl)CC1
inconclusive: Potency [1] 0.0332 µM [cytotoxic, full curve] | Potency [2] 4.18 µM [cytotoxic, partial curve] | Potency [3] 3.32 µM [cytotoxic, full curve] | Potency [7] 1.32 µM [cytotoxic, full curve, poor fit] | Potency [5] 5.9 µM [cytotoxic, partial curve]
active: Potency [9] 2.09 µM

CCOc1cc(C(=O)Nc2ccc(Cl)c(-c3nc4ccccc4[nH]3)c2)cc(OCC)c1OCC
active: Potency [1] 1.18 µM
inconclusive: Potency [2] 9.35 µM [cytotoxic, partial curve] | Potency [3] 13.2 µM [cytotoxic, partial curve, poor fit] | Potency [7] 0.0012 µM [rising, full curve, poor fit] | Potency [10] 5.9 µM [cytotoxic, partial curve] | Potency [6] 13.2 µM [cytotoxic, partial curve] | Potency [8] 23.5 µM [cytotoxic, single point] | Potency [9] 9.35 µM [cytotoxic, partial curve]

N#CC(=C1Nc2ccccc2S1)c1ccnc(OCc2ccc(CN3CCOCC3)cc2)n1
active: Potency [2] 5.26 µM | Potency [7] 2.09 µM
inconclusive: Potency [1] 37.2 µM [cytotoxic, single point] | viability (% of DMSO) [3] 3.31% [cytotoxic] | Potency [10] 0.469 µM [cytotoxic, full curve, poor fit]

C[C@]12CCC(=O)C=C1[C@@H]1CC1[C@H]1[C@H]3[C@@H]4C[C@H]4[C@@]4(CCC(=O)O4)[C@@]3(C)CC[C@H]12 (stereo partly drawn)
inactive: Potency [2] | Potency [7]
inconclusive: Potency [1] 3.32 µM [rising, partial curve] | Potency [3] 37.2 µM [cytotoxic, partial curve, poor fit] | Potency [5] 0.001 µM | Potency [6] 37.2 µM [cytotoxic, single point] | Potency [8] 20.9 µM [cytotoxic, single point]

CN1CCC[C@H]1CCO[C@](C)(c1ccccc1)c1ccc(Cl)cc1
inconclusive: Potency [1] 16.6 µM [cytotoxic, partial curve, poor fit] | Potency [2] 37.2 µM [cytotoxic, single point] | Potency [3] 7.43 µM [cytotoxic, partial curve, poor fit] | Potency [7] 16.6 µM [cytotoxic, partial curve, poor fit] | Potency [10] 18.7 µM [cytotoxic, partial curve] | Potency [6] 37.2 µM [cytotoxic, single point] | Potency [8] 29.6 µM [cytotoxic, single point] | Potency [9] 33.2 µM [cytotoxic, single point]

COc1cc2nccc(Oc3ccc(NC(=O)Nc4cc(C)on4)c(Cl)c3)c2cc1OC
active: Potency [7] 26.4 µM | Potency [5] 20.9 µM
inconclusive: Potency [1] 11.8 µM [cytotoxic, partial curve, poor fit] | Potency [2] 16.6 µM [cytotoxic, partial curve] | Potency [3] 0.0019 µM [rising, full curve, poor fit] | Potency [10] 0.833 µM [cytotoxic, full curve, poor fit] | Potency [9] 5.9 µM [cytotoxic, partial curve, poor fit]
inactive: Potency [6]

CCCCCN(C)CCC(O)(P(=O)(O)O)P(=O)(O)O
inconclusive: Potency [7] 0.0019 µM [rising, full curve, poor fit] | Potency [8] 0.0053 µM [rising, full curve] | Potency [9] 0.0019 µM [rising, full curve]
inactive: Potency [1] | Potency [2] | Potency [3]

O=C(O)c1ccc2c(c1)nc(Nc1cccc(Cl)c1)c1ccncc12
inconclusive: Potency [2] 10.5 µM [cytotoxic, single point]
active: Potency [1] 5.9 µM | Potency [3] 6.62 µM | Potency [7] 9.35 µM | Potency [10] 6.62 µM | Potency [8] 10.5 µM | Potency [9] 5.26 µM
